# Laboratory results: the supplement of paper PMC8728848
# This is one part of the list.
# B1: MFG-E8 (Homo sapiens), Q08431 (protein)
# chain: MPRPRLLAALCGALLCAPSLLVALDICSKNPCHNGGLCEEISQEVRGDVFPSYTCTCLKGYAGNHCETKCVEPLGLENGNIANSQIAASSVRVTFLGLQHWVPELARLNRAGMVNAWTPSSNDDNPWIQVNLLRRMWVTGVVTQGASRLASHEYLKAFKVAYSLNGHEFDFIHDVNKKHKEFVGNWNKNAVHVNLFETPVEAQYVRLYPTSCHTACTLRFELLGCELNGCANPLGLKNNSIPDKQITASSSYKTWGLHLFSWNPSYARLDKQGNFNAWVAGSYGNDQWLQVDLGSSKEVTGIITQGARNFGSVQFVASYKVAYSNDSANWTEYQDPRTGSSKIFPGNWDNHSHKKNLFETPILARYVRILPVAWHNRIALRLELLGC
# Assays:
# Test in all cases: glycan array binding signal (z-score within array); higher = stronger binding
# Conditions in all cases: glycan notation: IUPAC condensed, linker removed
# [1] = target: Gal(b1-4)GlcNAc(b1-2)Man(a1-6)[Man(a1-3)]Man(b1-4)GlcNAc(b1-4)GlcNAc
# Outline: (§1)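 From the Consortium for Functional Glycomics database, 3228 arrays were curated, keeping only those whose protein sequence was available. Binding is given as a within-array Z-score averaged across arrays sharing a protein sequence and across linkers. Negative Z-scores can be read as non-binding.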
# [2] = target: Gal(b1-4)GlcNAc(b1-2)[Gal(b1-4)GlcNAc(b1-4)]Man(a1-3)[Gal(b1-4)GlcNAc(b1-2)Man(a1-6)]Man(b1-4)GlcNAc(b1-4)GlcNAc
# Outline: as §1
# [3] = target: Gal(b1-4)GlcNAc(b1-2)[Gal(b1-4)GlcNAc(b1-4)]Man(a1-3)[Gal(b1-4)GlcNAc(b1-2)[Gal(b1-4)GlcNAc(b1-6)]Man(a1-6)]Man(b1-4)GlcNAc(b1-4)GlcNAc
# Outline: as §1
# [4] = target: Gal(b1-4)GlcNAc(b1-2)[Gal(b1-4)GlcNAc(b1-4)]Man(a1-3)[GlcNAc(b1-4)][Gal(b1-4)GlcNAc(b1-2)Man(a1-6)]Man(b1-4)GlcNAc(b1-4)GlcNAc
# Outline: as §1
# [5] = target: Gal(b1-4)GlcNAc(b1-2)[Gal(b1-4)GlcNAc(b1-4)]Man(a1-3)[GlcNAc(b1-4)][Gal(b1-4)GlcNAc(b1-2)[Gal(b1-4)GlcNAc(b1-6)]Man(a1-6)]Man(b1-4)GlcNAc(b1-4)GlcNAc
# Outline: as §1
# [6] = target: Gal(b1-4)GlcNAc(b1-2)[Gal(b1-4)GlcNAc(b1-6)]Man(a1-6)[Gal(b1-4)GlcNAc(b1-2)Man(a1-3)]Man(b1-4)GlcNAc(b1-4)GlcNAc
# Outline: as §1
# [7] = target: Gal(b1-4)GlcNAc(b1-2)[Gal(b1-4)GlcNAc(b1-6)]Man(a1-6)[GlcNAc(b1-4)][Gal(b1-4)GlcNAc(b1-2)Man(a1-3)]Man(b1-4)GlcNAc(b1-4)GlcNAc
# Outline: as §1
# [8] = target: Gal(b1-4)GlcNAc(b1-3)Gal(b1-3)GlcNAc
# Outline: as §1
# [9] = target: Gal(b1-4)GlcNAc(b1-3)Gal(b1-4)Glc
# Outline: as §1
# [10] = target: Gal(b1-4)GlcNAc(b1-3)Gal(b1-4)GlcNAc
# Outline: as §1
# [11] = target: Gal(b1-4)GlcNAc(b1-3)Gal(b1-4)GlcNAc(b1-3)Gal(b1-4)GlcNAc
# Outline: as §1
# [12] = target: Gal(b1-4)GlcNAc(b1-3)Gal(b1-4)[Fuc(a1-3)GlcNAc(b1-6)]Gal(b1-4)Glc
# Outline: as §1
# [13] = target: Gal(b1-4)GlcNAc(b1-3)Gal(b1-4)[Fuc(a1-3)]GlcNAc(b1-3)Gal(b1-4)[Fuc(a1-3)]GlcNAc
# Outline: as §1
# [14] = target: Gal(b1-4)GlcNAc(b1-3)GalNAc
# Outline: as §1
# [15] = target: Gal(b1-4)GlcNAc(b1-3)[Gal(b1-4)GlcNAc(b1-6)]Gal(b1-4)GlcNAc
# Outline: as §1
# [16] = target: Gal(b1-4)GlcNAc(b1-3)[Gal(b1-4)GlcNAc(b1-6)]GalNAc
# Outline: as §1
# [17] = target: Gal(b1-4)GlcNAc(b1-3)[GlcNAc(b1-6)]Gal(b1-4)GlcNAc
# Outline: as §1
# [18] = target: Gal(b1-4)GlcNAc(b1-6)Gal(b1-4)GlcNAc
# Outline: as §1
# [19] = target: Gal(b1-4)GlcNAc(b1-6)GalNAc
# Outline: as §1
# [20] = target: Gal(b1-4)GlcNAc(b1-6)[Gal(b1-3)]GalNAc
# Outline: as §1
# [21] = target: Gal(b1-6)Gal
# Outline: as §1
# [22] = target: Gal3S(b1-3)GalNAc
# Outline: as §1
# [23] = target: Gal3S(b1-3)GlcNAc
# Outline: as §1
binder,measurement,setting,value
B1,glycan array binding signal (z-score),[1],-0.035
same,glycan array binding signal (z-score),[2],1.32
same,glycan array binding signal (z-score),[3],-0.253
same,glycan array binding signal (z-score),[4],1.14
same,glycan array binding signal (z-score),[5],-0.395
same,glycan array binding signal (z-score),[6],-0.137
same,glycan array binding signal (z-score),[7],-0.008
same,glycan array binding signal (z-score),[8],-0.804
same,glycan array binding signal (z-score),[9],-0.172
same,glycan array binding signal (z-score),[10],0.707
same,glycan array binding signal (z-score),[11],0.656
same,glycan array binding signal (z-score),[12],1.53
same,glycan array binding signal (z-score),[13],-0.365
same,glycan array binding signal (z-score),[14],-0.193
same,glycan array binding signal (z-score),[15],0.41
same,glycan array binding signal (z-score),[16],-0.287
same,glycan array binding signal (z-score),[17],-0.5
same,glycan array binding signal (z-score),[18],-0.668
same,glycan array binding signal (z-score),[19],-0.008
same,glycan array binding signal (z-score),[20],-0.591
same,glycan array binding signal (z-score),[21],-0.061
same,glycan array binding signal (z-score),[22],-0.625
same,glycan array binding signal (z-score),[23],-0.164
